# According to patent US20210198313A1, “METHOD OF PRODUCING IMIDAZOLE DIPEPTIDES” (Tokai Bussan Co., Ltd., priority 2019, published 2021):
# For at least one compound, name, drawing or mass did not settle the structure.
# Assay: Titration of 0.1 M aqueous solutions with 0.1 N sulfuric acid and 0.1 N sodium hydroxide to determine dissociation constants and charge state
# Format: physicochemical
# Description: In view of the difference between the adsorption behaviors of imidazole dipeptides, including anserine and carnosine, and creatinine on a strongly acidic cation exchange resin, each electrical dissociation behavior of the compounds with respect to pH values was experimentally measured by the titration method as mentioned below. The terms “pK” and “pI” are the dissociation constant and the isoelectric point, respectively.
# The 0.1 M aqueous solutions of L-anserine, L-carnosine and creatinine were prepared and the titration curves were generated with 0.1 N sulfuric acid and 0.1 N sodium hydroxide according to known methods. From each titration curve, pK1, pKR and pK2 were determined.
# In Table 1, with respect to anserine and carnosine, pK1 represents the dissociation of carboxyl group, pKR represents the dissociation of imidazole group, and pK2 represents the dissociation of amino group. With respect to creatinine, pKR represents the dissociation of imidazole group.
# Based on the measured results, the state of the charge of anserine, carnosine and creatinine at each pH value is shown in FIG. 1.
structure (smiles),measurement,setting,value
"CN1CC(=O)NC1=N [Creatinine, creatinine]",pKR (dissociation of imidazole group),"0.1 M aqueous solution, titration curve",4.9
same,positive charge,"pH 5, FIG. 1",0.5 valent
same,positive charge,"pH 5.6, FIG. 1",0.2 valent
same,positive charge,"pH 6, FIG. 1",0.1 valent
same,positive charge,"pH equal to or more than 7, FIG. 1",no positive charge
